# Data from patent publication US6426222B1, “Method for inducing osteoblast differentiation of human extramedullary adipose tissue cells” (Bio Holdings International Limited, priority 1997, dated 2002).
# At least one compound was matched to its structure with a doubt left.
# Assays:
# [1] = system: human extramedullary adipose tissue cells; experiment: Examination of the cells under a scanning electron microscope; type: cell-based
# [2] = system: human extramedullary adipose tissue cells; experiment: Type I collagen immunofluorescence on fixed cells; type: cell-based; conditions: 30 days of treatment
# [3] = system: human extramedullary adipose tissue cells; experiment: In vitro mineralization of the extracellular matrix (von Kossa stain); type: cell-based; conditions: after 45 days
# [4] = system: human extramedullary adipose tissue cells; experiment: In situ cytoenzymatic (histochemical) detection of alkaline phosphatase on fixed cell cultures; type: cell-based; conditions: cultures fixed with formol after 30 days of treatment
# [5] = system: cells of the stroma-vascular compartment of extramedullary adipose tissue; conditions: in vitro cultures; cited from earlier work
structure (smiles),measurement,setting,value
C[C@@H]1C[C@H]2[C@@H]3CCC4=CC(=O)C=C[C@]4(C)[C@@]3(F)[C@@H](O)C[C@]2(C)[C@@]1(O)C(=O)CO [dexamethasone],appearance of cells under scanning electron microscope,[1],presence of nodular structures
same,reaction with anti-type I collagen antibody (fluorescence),[2],developed highly fluorescent nodular structures
same,points of mineralization,[3],numerous centers of mineralization were observed
same,cells with positive alkaline phosphatase activity (cytoenzymatic test),[4],majority of cells with positive alkaline phosphatase activity
same,osteoblast differentiation of rabbit adipose stroma-vascular cells,[5],does not make this differentiation possible
